# Screen size: about 410,000 compounds; about 18,000 (4.4%) were called active. Inconclusive means that the source gave no clear call. Such entries were picked first, then a sample of the others. Cut-off read from the data, not from the text of the source: active = activity change below about -60%; inconclusive = no clear call, values can overlap the other calls; inactive = above about -39%.
# Experiment: qHTS Assay for inhibitors of the human cytomegalovirus (HCMV)
# Conditions: HFF cells, HCMV-luciferase reporter, 72 h; at 57.5 µM; hits give low values
# How it was run: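 Luciferase read-out from HCMV-luciferase-infected HFFs (MOI 1 PFU/cell) 72 h post infection at 37C; compounds added after 16 h cell attachment; activity normalized between buffer-only basal and Salinomycin (10uM) inhibitor controls.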
# % is set by controls: 0 for no effect and ±100 for the full control effect.
row,Compound,"activity change, negative = inhibition"
1,S=C(NCCc1ccc(Cl)cc1)NCc1ccco1,inconclusive: -51.5%
2,CCOc1ccc(NS(=O)(=O)c2ccc(C(=O)NCC(c3ccco3)N3CCCC3)cc2)cc1 (centres undefined),inactive: 1.98%
3,COc1ccc(/C=N/NC(=O)CCn2c3ccccc3c3ccccc32)cc1OC,inconclusive: -42.4%
4,CCc1ccc(OCc2nc(-c3ccc(OC)cc3)no2)c(Br)c1,inactive: -31.7%
5,COc1ccc(C2=NOC(Cn3nc(C(=O)NCc4cccc(C(F)(F)F)c4)cc3-c3ccccc3)C2)cc1 (centres undefined),inconclusive: -54.1%
6,COc1ccc(CC(=O)OCC(=O)N2N=C(c3ccccc3)CC2c2ccc(OC)cc2)cc1 (centres undefined),inactive: -8.86%
7,c1ccc(CN2CCN(C3=Nc4cccc5cccc3c45)CC2)cc1,inactive: -2.75%
8,Cc1cc(C)n2nc(N)c(N=Nc3cccc(Cl)c3)c2n1,inconclusive: -57.9%
9,c1ccc(Oc2ncnc3ccccc23)cc1,inconclusive: -57%
10,Cc1c(CCC(=O)NCc2cccc(Cl)c2)c(=O)oc2c(C)c(O)ccc12,inconclusive: -57.7%
11,Cc1onc(-c2c(Cl)cccc2Cl)c1C(=O)N1CCN(Cc2ccccc2)CC1,inactive: -25.8%
12,Oc1c(CNc2ccccc2)cc(COCc2ccccc2)c2cccnc12,active: -99.5%
13,CC(=O)c1sc(NCc2ccc(C)cc2)nc1C,inactive: 6.8%
14,Cc1nc2cc(F)ccc2n1C1CCN(C(=O)c2c(F)cccc2F)CC1,inactive: -17.1%
15,Cc1cc(C)nc(SCC(=O)Nc2sc3c(c2C#N)CCC(C)C3)n1 (centres undefined),inconclusive: -41.4%
16,CCn1nnc2cc(C(=O)Nc3cc(Cl)ccc3C)ccc21,inconclusive: -54.6%
17,CCCCc1ccc(NC(=O)C(=O)NCCN2CCN(Cc3ccc([N+](=O)[O-])cc3)CC2)cc1,active: -60.2%
18,Cc1nc(CCNC(=O)CC2C(=O)NCCN2Cc2ccccc2)nc2c1CCC2 (centres undefined),inactive: -0.939%
19,CCn1c(SCC(=O)c2[nH]c(C)c(C(C)=O)c2C)nnc1-c1ccccc1,inactive: -36.7%
20,NC(N)=NN=C(c1ccc(F)cc1)c1ccc(C(F)(F)F)cc1,active: -76.7%
21,CCc1ccc(CN2CCCC(C(=O)Nc3ccc(-c4cscn4)cc3)C2)o1 (centres undefined),inactive: -34.9%
22,COCCN(C(=O)c1ccc(N2CCCC2=O)cc1)c1c(N)n(CC(C)C)c(=O)[nH]c1=O,inconclusive: -57.5%
23,Cc1onc(NC(=O)CSCC(=O)O)c1Br,active: -72.6%
24,COc1ccc(NC(=O)c2ccccc2-c2ccc(C(F)(F)F)cc2)cc1S(=O)(=O)N1CCOCC1,active: -67.3%

# Three entries already listed, ordered by molar mass, descending.
row,Compound,"activity change, negative = inhibition"
18,Cc1nc(CCNC(=O)CC2C(=O)NCCN2Cc2ccccc2)nc2c1CCC2 (centres undefined),inactive: -0.939%
4,CCc1ccc(OCc2nc(-c3ccc(OC)cc3)no2)c(Br)c1,inactive: -31.7%
12,Oc1c(CNc2ccccc2)cc(COCc2ccccc2)c2cccnc12,active: -99.5%
